Measured values from PubChem BioAssay AID2685 (National Center for Advancing Translational Sciences (NCATS), 2010).
The list shows a part of the results. The main result of the screen is listed elsewhere. These columns were measured beside it and carry no call. The list favours compounds with an active or inconclusive main result. Potencies come from curve fits of mixed quality, noted in brackets.

Assay: qHTS Assay for Lipid Storage Modulators in Drosophila S3 Cells;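 as to cell number change: cells counted by Cell Tracker Red CMTPX staining in the red channel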
Conditions: BODIPY lipid droplet fluorescence, 18-24 h; for cell number change: measured here: cell count max response, cells fed with added oleic acid
Outline: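 Drosophila S3 cells got compounds at several concentrations plus oleic acid (400 uM solution). Laser-scanning cytometry with 488 nm excitation read lipid droplets at 500-530 nm and cells at 575-640 nm. Percent activity was relative to 20 uM Triacsin C.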

[1] = measured here: cell number channel AC50, cells fed with added oleic acid
[2] = measured here: lipid fluorescence (Fed channel) AC50, cells fed with added oleic acid

Row | Structure (SMILES) | cell number change [%] | AC50 [1] | AC50 [2]
1 | COc1ccc(CNC(=O)CCCN2C(=O)c3ccccc3C2=O)cc1 | 146 | 0.00461 µM [falling, full curve, poor fit] | 0.00461 µM [falling, full curve, poor fit]
2 | CC(C)(C)c1ccc(-c2cn(-c3ccc(Br)cc3)c3[n+]2CCCS3)cc1 | -69.7 | 2.06 µM [falling, full curve] | 2.59 µM [falling, full curve]
3 | CC1COc2ccccc2N1S(=O)(=O)c1cc(Cl)ccc1Cl (centres undefined) | 16.3 | – | 6.51 µM [rising, partial curve]
4 | CC(C)CC(C(=O)OCC(=O)Nc1cccc(Cl)c1)N1C(=O)C2CC=CCC2C1=O (centres undefined) | -31.7 | 23.1 µM [falling, single point] | 14.6 µM [falling, single point]
5 | Cc1ccc(OCC(=O)Nc2sc3c(c2C#N)CCC3)cc1C | -38.2 | 20.6 µM [falling, partial curve] | –
6 | Cc1ccc2nc(NC(=O)COC(=O)c3ccccn3)sc2c1 | – | 3.26 µM [falling, single point] | 3.66 µM [falling, single point]
7 | COc1ccc(S(=O)(=O)N2CCN(c3ccc(C)cc3C)CC2)cc1OC | – | 5.17 µM [rising, single point] | –
8 | O=C(Oc1cccnc1)c1ccc(Cl)c(Cl)c1 | 43.1 | 18.4 µM [rising, single point] | 29.1 µM [rising, single point]
9 | Cc1ccc2c(c1)N(C(=O)CCC(=O)N1CCC(C(N)=O)CC1)CCO2 | 13 | – | 0.58 µM [rising, full curve, poor fit]
10 | Cc1c(Cl)cccc1NC(=O)CCC(=O)NNC(=O)CCC(=O)O | -2.7 | 6.51 µM [rising, single point] | –
11 | Cc1occc1-c1nnc(SCC(=O)NC2CCCCC2C)o1 (centres undefined) | – | – | 6.51 µM [falling, single point]
12 | CCc1ccc(C2CC(=O)N(c3cccc(F)c3)C3=C2C(=O)OC3)cc1 (centres undefined) | – | 3.66 µM [falling, partial curve, poor fit] | –
13 | COc1cc2oc3cc(C)oc(=O)c3c2cc1OC | 48.9 | 6.51 µM [rising, partial curve, poor fit] | –
14 | CCN(c1ccccc1)S(=O)(=O)c1ccc(Cl)c(NC(=O)COC(=O)C2CC2C)c1 (centres undefined) | 57.8 | 29.1 µM [rising, single point] | 18.4 µM [rising, single point]
15 | COc1ccc(S(=O)(=O)NCC2CCCN(C(=O)CN3CCCCC3)C2)cc1 (centres undefined) | 12 | – | –
16 | Cc1ccc(C(=O)Nc2ccc3c(c2)nc(CCNC(=O)c2ccco2)n3C)cc1 | 108 | 29.1 µM [rising, single point] | 29.1 µM [rising, single point]
17 | COc1ccc(S(=O)(=O)CC(=O)c2cc3cccc(C)c3oc2=O)cc1 | -4.25 | – | 6.51 µM [falling, single point]
18 | N#C/C(=C/c1ccc(-c2ccccc2)o1)c1nc(-c2cccs2)cs1 | – | – | 2.91 µM [falling, partial curve]
19 | C=C1CC(C(=O)N/N=C/c2ccc(O)cc2)C1 | -44.1 | – | 25.9 µM [falling, partial curve, poor fit]

Of the compounds above, these contain a cyano group:
Row | Structure (SMILES) | cell number change [%] | AC50 [1] | AC50 [2]
5 | Cc1ccc(OCC(=O)Nc2sc3c(c2C#N)CCC3)cc1C | -38.2 | 20.6 µM [falling, partial curve] | –
18 | N#C/C(=C/c1ccc(-c2ccccc2)o1)c1nc(-c2cccs2)cs1 | – | – | 2.91 µM [falling, partial curve]

The list goes on.

Row | Structure (SMILES) | cell number change [%] | AC50 [1] | AC50 [2]
20 | CC(C)NC(=O)C1CCCN(S(=O)(=O)c2ccc(-n3cnnn3)cc2)C1 (centres undefined) | 16.7 | 4.61 µM [falling, single point] | 1.3 µM [falling, partial curve]
21 | CCc1noc(C)c1C(=O)Nc1nc(-c2ccc(OC)c(OC)c2)cs1 | 30.8 | 1.16 µM [rising, full curve] | 0.411 µM [rising, full curve]
22 | CC1(C)C(=O)Nc2ccccc2N1C(=O)COC(=O)c1cc(S(=O)(=O)N2CCOCC2)ccc1F | – | 0.82 µM [falling, single point] | –
23 | Cc1nn(S(=O)(=O)c2ccc(F)cc2)c(C)c1S(=O)(=O)N1CCCCC1 | 6.23 | – | 0.58 µM [rising, single point]
24 | Nc1ncnc2nc(SCCc3ccccc3)[nH]c12 | -36 | 4.61 µM [falling, partial curve] | –
25 | Cc1ccccc1-c1nnc(SCC(=O)NC2CCCC2)o1 | 15.2 | – | –
26 | C=CCN1C(=O)C(O)=C(C(C)=O)C1c1ccccc1F (centres undefined) | 0.929 | – | 0.0058 µM [falling, full curve, poor fit]
27 | COc1ccc(NC(=O)/C(=C/c2cccs2)NC(=O)c2ccco2)cc1 | – | – | 0.517 µM [falling, full curve]
28 | O=c1ccc(-c2ccccc2)n[nH]1 | -32.1 | 1.64 µM [falling, full curve, poor fit] | –
29 | COC(=O)c1ccc(CSCc2ccc(C#N)cc2)cc1 | 34.8 | – | –
30 | O=[N+]([O-])c1ccc(C(=S)N2CCCC2)cc1 | 101 | 29.1 µM [rising, single point] | –
31 | Nc1nnc(CCOc2ccccc2Cl)s1 | 29.9 | – | –
32 | COc1ccccc1C(C)NC(=O)CN(C)CC(=O)Nc1c(C)cccc1C (centres undefined) | 11.6 | – | 25.9 µM [rising, single point]
33 | CCOc1ccc2nc(NS(=O)(=O)c3ccc4c(c3)n(C)c(=O)n4C)sc2c1 | 3.25 | – | –
34 | COc1cccc(CC(=O)Nc2nc3ccccc3[nH]2)c1 | -53.1 | – | 0.0116 µM [falling, full curve, poor fit]
35 | COc1cc(C(=O)c2cocc2C(=O)c2ccc3c(c2)OCO3)cc(OC)c1OC | 27.9 | 0.146 µM [rising, full curve, poor fit] | 29.1 µM [rising, single point]
36 | C#CCOc1nc(C)cc(C)c1S(=O)(=O)c1ccccc1C | 12.6 | – | 0.103 µM [rising, full curve, poor fit]
37 | O=C(CN(Cc1cccs1)S(=O)(=O)c1ccc(S(=O)(=O)NC2CCCCC2)cc1)Nc1ccccc1 | 57.8 | 29.1 µM [rising, single point] | –
38 | COc1ccc(C(=O)O)cc1S(=O)(=O)NC(C)(C)C | -23.7 | – | 0.82 µM [falling, full curve, poor fit]
